# Screening data, single-dose tests

Sequences of proteins named here, by UniProt entry; tags and fusion partners are left off. Residues count along the entry.
UniProt Q4DA54, 1-478: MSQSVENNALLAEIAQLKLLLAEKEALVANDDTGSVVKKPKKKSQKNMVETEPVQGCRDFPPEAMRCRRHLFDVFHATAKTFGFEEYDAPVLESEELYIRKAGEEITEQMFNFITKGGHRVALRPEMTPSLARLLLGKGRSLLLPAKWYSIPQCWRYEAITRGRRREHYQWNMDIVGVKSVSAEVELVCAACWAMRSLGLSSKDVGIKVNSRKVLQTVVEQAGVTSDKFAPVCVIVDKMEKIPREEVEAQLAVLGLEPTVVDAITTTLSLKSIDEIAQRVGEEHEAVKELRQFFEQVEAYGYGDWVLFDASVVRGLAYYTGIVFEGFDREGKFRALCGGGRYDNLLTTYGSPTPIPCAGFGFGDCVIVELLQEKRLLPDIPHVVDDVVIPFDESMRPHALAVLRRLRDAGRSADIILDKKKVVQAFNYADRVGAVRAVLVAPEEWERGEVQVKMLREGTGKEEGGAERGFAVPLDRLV
UniProt A4I591, 1-473: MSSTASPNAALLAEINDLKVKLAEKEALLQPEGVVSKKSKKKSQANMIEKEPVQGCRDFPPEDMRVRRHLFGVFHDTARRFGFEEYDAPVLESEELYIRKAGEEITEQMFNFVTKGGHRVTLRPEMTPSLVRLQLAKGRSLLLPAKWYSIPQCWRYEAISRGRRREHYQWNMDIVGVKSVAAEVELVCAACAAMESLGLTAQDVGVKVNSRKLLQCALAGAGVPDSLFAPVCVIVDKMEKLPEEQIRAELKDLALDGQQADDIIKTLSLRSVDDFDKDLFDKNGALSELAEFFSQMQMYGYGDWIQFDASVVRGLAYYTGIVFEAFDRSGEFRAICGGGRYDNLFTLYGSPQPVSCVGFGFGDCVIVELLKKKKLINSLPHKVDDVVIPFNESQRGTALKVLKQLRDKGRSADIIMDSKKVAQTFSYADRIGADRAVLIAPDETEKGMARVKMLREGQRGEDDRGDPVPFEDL
UniProt P9WPC5, whole entry: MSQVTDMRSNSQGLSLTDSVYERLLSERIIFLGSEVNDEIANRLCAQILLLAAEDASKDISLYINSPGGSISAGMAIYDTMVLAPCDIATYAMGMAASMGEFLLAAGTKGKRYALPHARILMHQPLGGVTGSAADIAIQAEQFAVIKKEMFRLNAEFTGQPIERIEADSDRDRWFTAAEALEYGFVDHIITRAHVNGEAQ
UniProt P9WPC3, whole entry partner: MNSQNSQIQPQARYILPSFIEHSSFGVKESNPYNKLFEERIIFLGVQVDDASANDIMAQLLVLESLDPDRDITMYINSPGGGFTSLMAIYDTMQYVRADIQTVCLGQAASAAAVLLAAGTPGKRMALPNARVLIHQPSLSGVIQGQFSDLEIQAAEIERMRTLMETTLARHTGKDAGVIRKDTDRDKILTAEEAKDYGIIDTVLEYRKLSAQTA

Source: ChEMBL document CHEMBL3988442, “University of Dundee, Small-Polar-MMV Screening Library” (2021).

Toxoplasma: 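Assay of Toxoplasma gondii numbers, read through their beta-galactosidase reporter with a colour substrate. Compounds at 10 µM. Higher reads as fewer parasites (inferred from which compounds were picked for retests). About 67,000 compounds were tested under these conditions; 0.38% (about 260) showed 50% or more at least once.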
Leishmania in macrophages: 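Cell assay of Leishmania donovani living inside macrophages; the read-out is not stated. Concentration: 30 µM. Direction is inferred from retests: higher values go with stronger inhibition. Size under these conditions: about 69,000 compounds, about 1,000 of them at 50% or above in at least one test.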
TcHisRS: 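Histidine-tRNA ligase, Trypanosoma cruzi CL Brener (UniProt Q4DA54). Enzyme assay of histidyl-tRNA synthetase; the read-out is not stated. Concentration: 30 µM. Direction is inferred from retests: higher values go with stronger inhibition. About 69,000 compounds were tested under these conditions; 0.045% (about 31) showed 50% or more at least once.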
LiHisRS: 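Histidine-tRNA ligase, Leishmania infantum (UniProt A4I591). Enzyme assay of histidyl-tRNA synthetase; the read-out is not stated. Tested at 30 µM. Direction is inferred from retests: higher values go with stronger inhibition. The assay is labelled LdHisRS but filed under L. infantum. About 69,000 compounds were tested under these conditions; 0.6% (about 410) showed 50% or more at least once.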
ClpP1P2: 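Protease assay of ClpP1P2, read by the AMC dye that it sets free. Target: ClpP1P2, Mycobacterium tuberculosis (UniProt P9WPC5 and UniProt P9WPC3). Compounds at 50 µM. Direction is inferred from only a few compounds that gave an IC50; most scored high, so higher reads as stronger inhibition. Most other retested compounds had strongly negative values. About 69,000 compounds were tested under these conditions; 0.015% (about 10) showed 50% or more at least once.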
T. brucei: 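Whole-parasite assay of Trypanosoma brucei over 72 hours; the read-out is not stated. Concentration: 30 µM. Higher reads as stronger inhibition (inferred: compounds with an IC50 in retests scored well above the rest). Values scatter widely below zero; nearly all retest evidence comes from the higher of the two concentrations used. Of about 64,000 compounds tested this way, about 940 (1.5%) reached 50% or more in at least one test.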

Each number is a percent effect as filed. The record does not define 0% and 100%; most values in the screen are far below 50% and negative numbers occur (in some assays of this library far below -100). This is an unselected part of the compounds tested. Two or more numbers in one place are separate tests of the same structure; such repeats can differ widely. A dash means the value is not listed here; it may have been measured.

| SMILES | Toxoplasma | Leishmania in macrophages | TcHisRS | LiHisRS | ClpP1P2 | T. brucei |
|---|---|---|---|---|---|---|
| `CN(C)C(=O)c1cccnc1SCc1ccccc1C#N` | -11.37 | 8.55 | 1.136 | 11.88 | -11.34 | 6.066 |
| `CC(=O)N(CCc1ccccc1)CC(=O)NC1(C#N)CC1` | - | 5.262 | 4.598 | 0 | -13.05 | -16.12 |
| `Cc1nc(-c2cnn(C)c2)nc2c1CN(C(=O)c1cccnc1)CC2` | -0.3157 | 4.107 | 4.902 | 7.563 | -9.459 | -60.51 |
| `Cc1nc(Cn2c3c(ccc2=O)CC(NC(N)=O)CC3)cs1` (centres undefined) | -8.406 | 52.43 | 2.21 | 20.72 | 12.43 | -13.87 |
| `O=c1nc(SCc2cccnc2)c2c(n1CCO)CCCC2` | -1.131 | 30.23 | 3.061 | 8.264 | 2.123 | -14.39 |
| `N#Cc1ccc(CS(=O)(=O)NC(=O)c2ccc3c(c2)COC3)cc1` | -1.957 | -26.03 | 2.941 | 9.244 | -0.5755 | -61.21 |
| `O=C(c1cnc(-c2ccco2)s1)N1CCCCC1Cn1cccn1` (centres undefined) | -7.128 | 11.89 | -0.2865 | 5.263 | -7.551 | -0.6425 |
| `Cc1cc(F)ccc1S(=O)(=O)N(C)CC(N)=O` | 12.94 | 1.846 | 2.041 | 14.52 | -2.277 | -48.78 |
| `O=C(NCc1ccc2c(c1)CCCO2)C1CNCCO1` (centres undefined) | -23.74 | -20.57 | -1.22 | 10.84 | -6.886 | -8.435 |
| `O=C(NC1CCCN(Cc2c(F)cccc2F)C1)c1cc[nH]n1` (centres undefined) | 2.18 | 17.72 | 1.657 | 5.181 | -4.205 | 4.301 |
| `CCn1cc(N2Cc3nc(N)ncc3C2=O)cn1` | 10.4 | 5.892 | -0.5464 | 13.59 | 3.08 | 6.252 |
| `CCCN1CCN(C(=O)c2cc3ccccc3cn2)[C@H]2CS(=O)(=O)C[C@H]21` | - | - | 4.082 | 19.44 | 0.4366 | - |
| `CCN(Cc1ccoc1)C(=O)c1ccncc1O` | -51.55 | -2.731 | 1.053 | 5.479 | -0.6957 | -3.46 |
| `COc1cccc(OCCCc2cc(C#N)ccn2)c1` | 16.79 | -2.721 | -1.093 | -16.44 | -4.337 | -62.01 |
| `O=C(NC1CCCC1)[C@@H]1CN(Cc2nccs2)C[C@H]2OCC[C@H]21` | - | - | 8.197 | 5.109 | -2.26 | - |
| `CC(C)C(=O)NCc1cc(Br)ccc1F` | -4.042 | -23.62 | 8.929 | 9.677 | -1.413 | -42.54 |
| `CC(=O)N1CCc2nnc(C3CCCCN3CC3CC3)n2CC1` (centres undefined) | 16.37 | -8.922 | 3.802 | 4.828 | 2.249 | -10.27 |
| `CCC(O)CNC(=O)C1(N(C)Cc2ccccc2)Cc2ccccc2C1` (centres undefined) | -1.542 | -9.919 | 4.564 | 10.68 | -25.66 | -3.541 |
| `Cn1ccc(CN2CCC(c3ccccc3)CC2)cc1=O` | 4.764 | 10.31 | 5.344 | 27.4 | -8.646 | 10.22 |
| `Cc1ncc2c(c1C(=O)O)CCN(c1ncc(F)cn1)C2.O=C(O)C(F)(F)F` | -17.89 | -0.7137 | - | - | - | - |
| `COc1cccnc1-c1ccc(F)c2c1OC(CN)C2` (centres undefined) | -2.122 | -22.62 | 6.383 | 32.86 | 9.573 | -10.94 |
| `Cc1c[nH]c(CN2CCOC(c3ccc(F)cc3)C2)c(C)c1=O` (centres undefined) | -25.43 | 24.47 | 6.186 | 22.86 | -6.288 | -31.86 |
| `COc1ccc(NC(=O)CCN2CC=C(c3cnn(C)c3)CC2)c(C)c1` | 13.36 | 13.87 | 0.8929 | 19.47 | -5.308 | -113 |
| `CC1CCCCN1C1CN(c2nc(C3CCCC3)nc3c2cnn3C)C1` (centres undefined) | 3.195 | 3.54 | 2.97 | 20.55 | -10.32 | -19.92 |
| `CNC(=O)NC(=O)CSc1ccc2c(c1)CCC2` | -2.519 | 13.42 | -6.897 | 9.821 | 13.03 | -77.65 |
| `COc1c(C)cnc(CN2CCC(C(=O)N(C)C)CC2)c1C` | 1.906 | 31.25 | -2.29 | 10.96 | -5.426 | 20.08 |
| `CCOCC1CN(C(=O)Cc2cccs2)Cc2ccnn2C1` (centres undefined) | -19.64 | 34.28 | -11.82 | 8.824 | -12.66 | -22.36 |
| `CN(C)[C@@H]1CN(C(=O)Cc2cccc(F)c2)[C@@H]2CCCO[C@H]12` | - | - | -1.105 | -4.505 | -16.13 | - |
| `O=C(O)C(F)(F)F.c1csc(CN2CCCn3cnc(COCC4CC4)c3C2)c1` | -20.86 | 42.84 | - | - | - | -8.08 |
| `N#Cc1cnc2ccccc2c1N1CCNCC1` | 11.08 | 35.1 | 7.182 | 23.94 | 5.889 | -9.043 |
| `Cc1cc(N2CCC(O)(C(=O)O)CC2)nc2ccccc12` | -2.422 | 5.771 | 7.879 | 15.56 | -5.412 | -51.37 |
| `CCC(=O)N1CCN(c2ncnc3cc4c(cc23)OCCO4)CC1` | 75.76 | -95.64 | 4.348 | 17.24 | -9.199 | 8.758 |
| `Cc1ccc(NC(=O)NCC(c2cnn(C)c2)N(C)C)c(C)c1` (centres undefined) | -1.2 | -9.009 | 2.521 | 7.018 | -0.6805 | -13.46 |
| `Cn1ccc(C(=O)N2CCOC(c3ccccn3)C2)cc1=O` (centres undefined) | -36.57 | 3.537 & 2.508 | 3.731 | -5.263 | 7.249 | -23.37 |
| `COc1ccc(F)cc1C(C)NC(=O)Cn1ccc(=O)n(C)c1=O` (centres undefined) | 12.24 | 25.93 | 4.183 | 25 | 4.384 | 7.614 |
| `c1ccc2sc(N3CCCC(Cn4cncn4)C3)nc2c1` (centres undefined) | 11.45 | 15.9 | 4.217 | 8.791 | -9.46 | -18.36 |
| `Cc1cnn(CC2CCCCN2C(=O)c2ccc(C#N)c(C)n2)c1` (centres undefined) | 11.06 | 16.34 | 3.784 | 6.838 | -18.18 | -5.068 |
| `Cc1ccccc1CN1CCC(CNc2ncnc3c2CCNCC3)C1` (centres undefined) | 11.75 | 7.852 | 6 | 4.082 | -3.499 | 14.93 |
| `Cl.O=C(N1CCOCC1)N1CCC2(CCNC2)C1` (centres undefined) | -15.48 | 7.382 | - | - | - | -25.1 |

Repeated from the top, 5 entries:

* CN(C)C(=O)c1cccnc1SCc1ccccc1C#N | Toxoplasma: -11.37%; Leishmania in macrophages: 8.55%; TcHisRS: 1.136%; LiHisRS: 11.88%; ClpP1P2: -11.34%; T. brucei: 6.066%
* CC(=O)N(CCc1ccccc1)CC(=O)NC1(C#N)CC1 | Leishmania in macrophages: 5.262%; TcHisRS: 4.598%; LiHisRS: 0%; ClpP1P2: -13.05%; T. brucei: -16.12%
* Cc1nc(-c2cnn(C)c2)nc2c1CN(C(=O)c1cccnc1)CC2 | Toxoplasma: -0.3157%; Leishmania in macrophages: 4.107%; TcHisRS: 4.902%; LiHisRS: 7.563%; ClpP1P2: -9.459%; T. brucei: -60.51%
* Cc1nc(Cn2c3c(ccc2=O)CC(NC(N)=O)CC3)cs1 (centres undefined) | Toxoplasma: -8.406%; Leishmania in macrophages: 52.43%; TcHisRS: 2.21%; LiHisRS: 20.72%; ClpP1P2: 12.43%; T. brucei: -13.87%
* O=c1nc(SCc2cccnc2)c2c(n1CCO)CCCC2 | Toxoplasma: -1.131%; Leishmania in macrophages: 30.23%; TcHisRS: 3.061%; LiHisRS: 8.264%; ClpP1P2: 2.123%; T. brucei: -14.39%